Reference: PubChem BioAssay AID1159600 (NIAID, 2016)
The deposit covers 756 reagents; below is an unselected part. 134 of all reagents (18%) were called active. 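Active includes both reduced and increased reporter signal, though most active siRNAs reduce it; R848 dose unknown.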 Unmarked entries are inactive. The numbers tell different reagents against one gene apart. Not given: the amount of reagent.

Screen: 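Which TLR pathway genes support TNF promoter activation by R848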 (primary screen)
Cells: human THP-1 TNF reporter clone B5, made macrophage-like with PMA
Reagents: single siRNA against human genes
Timing: 4 h ligand stimulation, assayed 48 to 72 h after siRNA transfection
Treatment: R848 (TLR7/8 agonist) for 4 hours before lysis; dose not given
Read-out: 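TNF promoter firefly to renilla luciferase ratio after 4 h R848, scaled per plate by median and MAD, robust z-score against negative controls, mean of replicates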
Scale: TNF reporter z-score: higher = stronger TNF promoter reporter signal after R848
Call rule: 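siRNAs graded by distance of mean z-score from zero in steps of 1, 1.5, 2 and 2.5; active calls sit at roughly -1.5 or below, or 1.5 or above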
Calls: active = strong change in TNF reporter (up or down); inactive = little change

| Target gene | reagent | TNF reporter z-score |
| --- | --- | --- |
| IFNB1 | 1 | -1.05 |
| IFNB1 | 2 | -1.66 (active) |
| IFNB1 | 3 | 0.286 |
| IFNB1 | 4 | -0.655 |
| IFNB1 | 5 | -1.17 |
| IFNB1 | 6 | -2.02 (active) |
| SIGIRR | 1 | 0.441 |
| SIGIRR | 2 | -0.531 |
| SIGIRR | 3 | -0.285 |
| SIGIRR | 4 | -0.31 |
| SIGIRR | 5 | 1.41 |
| SIGIRR | 6 | 0.0189 |
| DUSP2 | 1 | -1.09 |
| DUSP2 | 2 | -0.305 |
| DUSP2 | 3 | -1.51 (active) |
| DUSP2 | 4 | 1.12 |
| DUSP2 | 5 | -0.633 |
| DUSP2 | 6 | -0.781 |
| PIK3CD | 1 | -1.51 (active) |
| PIK3CD | 2 | -0.325 |
| PIK3CD | 3 | 0.421 |
| PIK3CD | 4 | -1.1 |
| PIK3CD | 5 | 0.704 |
| PIK3CD | 6 | -1.33 |
| TLR4 | 1 | 1.76 (active) |
| TLR4 | 2 | -0.184 |
| TLR4 | 3 | -0.805 |
| TLR4 | 4 | 0.413 |
| TLR4 | 5 | -0.152 |
| TLR4 | 6 | -0.9 |
| TLR8 | 1 | -2.31 (active) |
| TLR8 | 2 | -2.78 (active) |
| TLR8 | 3 | -3.75 (active) |
| TLR8 | 4 | -2.98 (active) |
| TLR8 | 5 | -2.62 (active) |
| TLR8 | 6 | -2.69 (active) |
| AKT3 | 1 | 0.111 |
| AKT3 | 2 | -1.33 |
| AKT3 | 3 | -1.57 (active) |
| AKT3 | 4 | -0.0474 |
| AKT3 | 5 | 0.192 |
| AKT3 | 6 | -0.571 |
| FOS | 1 | 0.51 |
| FOS | 2 | 0.283 |
| FOS | 3 | 0.0217 |
| FOS | 4 | -0.345 |
| FOS | 5 | 0.192 |
| FOS | 6 | 1.49 |

Laid out differently: results already given.
Target gene | reagent | TNF reporter z-score
PIK3CD | 2 | -0.325
PIK3CD | 3 | 0.421
PIK3CD | 4 | -1.1
PIK3CD | 5 | 0.704
PIK3CD | 6 | -1.33
